Data published in patent US20220133662A1, “ORAL DRUG, ADJUVANT CANCER THERAPY, AND PET THERAPEUTIC DIET” (priority 2019, published 2022).
Some results were stated once for a whole list of compounds, not compound by compound.

Columns and labels:
[1] = system: Hela cells; assay: Survival rate of Hela cells (MTT), ketone donors alone or with cisplatin; assay type: cell-based; settings: ketone donor alone
[2] = system: COS7 cells; assay: Survival rate of COS7 cells (MTT), ketone donors alone or with cisplatin; assay type: cell-based; settings: 24 hours, ketone donor alone

C[C@@H](O)CC(=O)O [ketone bodies, (R)-3-β-hydroxybutyric acid]
concentration up to which not toxic (survival rate of Hela cells) [1]: ≥ 1000 µM
concentration up to which not toxic (survival rate of COS7 cells) [2]: ≥ 1000 µM
